Results are given in words; binding and its absence hold for the method and conditions named. In cells and extracts the contact can be indirect. Some results given as binding are weak or reduced against the parent protein; the word gives no strength.

In assay [1] the target is T1, mRuby3-linked E47:WT acceptor (transcription factor 3 isoform E47, wild type) (UniProt P15923).
T1 sequence: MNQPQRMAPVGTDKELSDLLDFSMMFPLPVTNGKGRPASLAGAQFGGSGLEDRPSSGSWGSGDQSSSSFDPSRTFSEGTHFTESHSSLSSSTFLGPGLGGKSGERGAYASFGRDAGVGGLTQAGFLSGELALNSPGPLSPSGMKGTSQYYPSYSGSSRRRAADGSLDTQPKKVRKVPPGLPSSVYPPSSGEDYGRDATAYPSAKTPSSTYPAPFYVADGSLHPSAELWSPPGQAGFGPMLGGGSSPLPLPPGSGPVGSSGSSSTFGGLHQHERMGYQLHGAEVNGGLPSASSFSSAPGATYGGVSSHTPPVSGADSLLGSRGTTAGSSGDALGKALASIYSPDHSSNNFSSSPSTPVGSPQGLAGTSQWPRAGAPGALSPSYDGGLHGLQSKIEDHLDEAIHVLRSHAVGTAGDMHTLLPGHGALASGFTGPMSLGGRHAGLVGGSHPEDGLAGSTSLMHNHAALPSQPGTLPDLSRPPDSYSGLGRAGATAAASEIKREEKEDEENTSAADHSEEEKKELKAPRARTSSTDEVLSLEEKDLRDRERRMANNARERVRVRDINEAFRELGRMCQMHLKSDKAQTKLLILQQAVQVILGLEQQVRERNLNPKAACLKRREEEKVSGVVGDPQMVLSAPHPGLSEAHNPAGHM
The assay can be described thus: FRET or BRET; TCSPC-based FLIM-FRET in living HEK293T cells; N-terminal mNeonGreen-linked ATOH7 donor, C-terminal mRuby3-linked E47 acceptor; 36.5 °C, 5.0% CO2; MG-132 for 4 h before imaging; nuclear and extranuclear regions of interest. In general terms: BRET reads energy transfer from a luciferase to a nearby fluorophore.

Assay [2] deals with T2, mRuby3-linked E47:ΔNLS acceptor (E47 p.(Arg158_Arg174del)) (UniProt P15923).
T2 sequence: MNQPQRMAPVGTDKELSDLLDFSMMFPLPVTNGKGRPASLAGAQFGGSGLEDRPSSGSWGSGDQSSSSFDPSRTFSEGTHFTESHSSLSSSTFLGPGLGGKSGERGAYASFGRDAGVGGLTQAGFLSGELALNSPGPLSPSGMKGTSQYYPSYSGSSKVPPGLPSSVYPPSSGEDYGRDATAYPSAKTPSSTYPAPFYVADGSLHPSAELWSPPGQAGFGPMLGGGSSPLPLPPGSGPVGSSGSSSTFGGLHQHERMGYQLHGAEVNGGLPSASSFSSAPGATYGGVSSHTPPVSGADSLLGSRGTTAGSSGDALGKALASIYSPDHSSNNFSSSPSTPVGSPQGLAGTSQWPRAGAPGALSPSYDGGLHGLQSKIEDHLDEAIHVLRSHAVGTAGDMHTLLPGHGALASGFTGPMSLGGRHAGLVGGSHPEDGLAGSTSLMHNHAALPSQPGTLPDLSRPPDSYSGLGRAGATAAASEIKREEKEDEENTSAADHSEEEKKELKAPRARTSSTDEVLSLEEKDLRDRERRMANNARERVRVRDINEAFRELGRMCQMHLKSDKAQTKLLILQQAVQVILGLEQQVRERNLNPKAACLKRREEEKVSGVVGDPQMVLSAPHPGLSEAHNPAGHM
Described as above.

B1: mNeonGreen-linked ATOH7:R41_R48del donor (protein, UniProt Q8N100)
chain: MKSCKPSGPPAGARVAPPCAGGTECAGTCAGAGRLESAARERRRMQGLNTAFDRLRRVVPQWGQDKKLSKYETLQMALSYIMALTRILAEAERFGSERDWVGLHCEHFGRDHYLPFPGAKLPGESELYSQRLFGFQPEPFQMAT
As for B1, the binding entry in assay [1] and in assay [2] was “binds” each time.

B2: mNeonGreen-linked ATOH7:A59T donor (protein, UniProt Q8N100 1-152)
chain: MKSCKPSGPPAGARVAPPCAGGTECAGTCAGAGRLESAARRRLAANARERRRMQGLNTTFDRLRRVVPQWGQDKKLSKYETLQMALSYIMALTRILAEAERFGSERDWVGLHCEHFGRDHYLPFPGAKLPGESELYSQRLFGFQPEPFQMAT
B2: the binding result in assay [1] was “binds”.

These data come from publication PMC8834682.
